Experimental data published in the supplement of paper PMC10849652.
The list shows a part of the results.

Protein sequences, listed by entry. Tags and fused reporters are not part of them. Lines headed by an entry give the natural chain unless they say otherwise; changes in a name come on top.
UniProt P26038, whole entry, looked up: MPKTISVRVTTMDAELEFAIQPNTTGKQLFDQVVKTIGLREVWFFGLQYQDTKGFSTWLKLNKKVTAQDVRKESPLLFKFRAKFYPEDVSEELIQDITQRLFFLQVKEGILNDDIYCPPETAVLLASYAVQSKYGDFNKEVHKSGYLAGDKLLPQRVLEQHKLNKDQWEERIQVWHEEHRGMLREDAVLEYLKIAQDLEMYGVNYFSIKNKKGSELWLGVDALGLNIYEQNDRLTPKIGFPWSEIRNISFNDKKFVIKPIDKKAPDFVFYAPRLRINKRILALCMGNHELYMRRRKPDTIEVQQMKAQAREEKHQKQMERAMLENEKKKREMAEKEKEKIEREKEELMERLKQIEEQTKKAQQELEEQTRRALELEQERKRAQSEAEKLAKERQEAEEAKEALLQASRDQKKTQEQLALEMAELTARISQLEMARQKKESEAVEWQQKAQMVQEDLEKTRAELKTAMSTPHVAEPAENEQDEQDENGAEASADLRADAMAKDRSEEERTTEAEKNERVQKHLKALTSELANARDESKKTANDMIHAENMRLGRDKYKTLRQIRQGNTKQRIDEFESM
UniProt Q99707: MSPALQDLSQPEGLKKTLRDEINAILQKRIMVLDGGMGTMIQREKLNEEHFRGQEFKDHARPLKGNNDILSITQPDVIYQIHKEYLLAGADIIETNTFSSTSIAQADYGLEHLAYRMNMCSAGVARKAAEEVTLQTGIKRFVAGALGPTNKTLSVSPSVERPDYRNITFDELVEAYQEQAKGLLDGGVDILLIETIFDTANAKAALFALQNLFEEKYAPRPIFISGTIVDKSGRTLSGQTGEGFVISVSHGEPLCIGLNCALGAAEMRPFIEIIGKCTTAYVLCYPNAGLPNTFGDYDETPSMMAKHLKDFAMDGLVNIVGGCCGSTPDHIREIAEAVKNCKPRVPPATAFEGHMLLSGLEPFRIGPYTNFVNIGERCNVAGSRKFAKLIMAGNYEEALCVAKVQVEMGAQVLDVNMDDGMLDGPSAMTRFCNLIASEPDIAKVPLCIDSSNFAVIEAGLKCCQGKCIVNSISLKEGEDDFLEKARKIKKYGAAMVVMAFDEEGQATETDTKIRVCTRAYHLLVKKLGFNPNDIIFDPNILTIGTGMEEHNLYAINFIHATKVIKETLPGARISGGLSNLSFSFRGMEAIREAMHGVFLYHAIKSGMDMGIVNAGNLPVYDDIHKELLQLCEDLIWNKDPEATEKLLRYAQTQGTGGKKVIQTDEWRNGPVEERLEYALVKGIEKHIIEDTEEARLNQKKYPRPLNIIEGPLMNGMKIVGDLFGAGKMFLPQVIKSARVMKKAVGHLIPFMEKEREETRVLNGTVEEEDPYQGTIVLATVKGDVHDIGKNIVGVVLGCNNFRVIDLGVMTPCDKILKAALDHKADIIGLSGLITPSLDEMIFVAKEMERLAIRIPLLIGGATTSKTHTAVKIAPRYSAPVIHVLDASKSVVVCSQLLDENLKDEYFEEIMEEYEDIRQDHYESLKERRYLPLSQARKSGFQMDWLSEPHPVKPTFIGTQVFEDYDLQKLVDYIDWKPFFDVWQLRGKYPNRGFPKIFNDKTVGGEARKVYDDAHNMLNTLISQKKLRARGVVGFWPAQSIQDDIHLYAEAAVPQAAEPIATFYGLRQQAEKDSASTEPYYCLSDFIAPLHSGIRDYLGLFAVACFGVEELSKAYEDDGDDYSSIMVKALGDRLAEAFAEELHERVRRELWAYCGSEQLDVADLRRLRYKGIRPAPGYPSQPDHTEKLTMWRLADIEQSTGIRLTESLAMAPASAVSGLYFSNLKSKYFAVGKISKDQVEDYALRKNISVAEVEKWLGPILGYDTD
UniProt P13995: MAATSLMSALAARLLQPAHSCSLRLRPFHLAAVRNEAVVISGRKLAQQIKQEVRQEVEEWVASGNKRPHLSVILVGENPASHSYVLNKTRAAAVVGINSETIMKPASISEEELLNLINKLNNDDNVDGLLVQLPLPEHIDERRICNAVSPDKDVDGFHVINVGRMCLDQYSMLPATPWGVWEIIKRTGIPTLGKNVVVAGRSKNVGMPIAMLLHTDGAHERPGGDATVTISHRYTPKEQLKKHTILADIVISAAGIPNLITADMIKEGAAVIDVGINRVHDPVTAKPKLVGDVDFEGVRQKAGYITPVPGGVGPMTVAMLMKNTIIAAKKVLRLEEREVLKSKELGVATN
UniProt Q6P444: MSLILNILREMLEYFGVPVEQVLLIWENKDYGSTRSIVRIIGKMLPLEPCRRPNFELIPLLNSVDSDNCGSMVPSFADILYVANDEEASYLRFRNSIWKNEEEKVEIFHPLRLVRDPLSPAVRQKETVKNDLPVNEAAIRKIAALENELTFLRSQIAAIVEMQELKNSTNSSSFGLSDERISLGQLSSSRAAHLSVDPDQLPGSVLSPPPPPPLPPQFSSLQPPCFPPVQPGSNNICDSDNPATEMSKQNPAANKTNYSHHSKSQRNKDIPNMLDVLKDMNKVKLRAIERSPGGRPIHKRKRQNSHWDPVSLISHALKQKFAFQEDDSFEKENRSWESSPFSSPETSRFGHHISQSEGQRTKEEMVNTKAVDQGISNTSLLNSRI
UniProt P00846: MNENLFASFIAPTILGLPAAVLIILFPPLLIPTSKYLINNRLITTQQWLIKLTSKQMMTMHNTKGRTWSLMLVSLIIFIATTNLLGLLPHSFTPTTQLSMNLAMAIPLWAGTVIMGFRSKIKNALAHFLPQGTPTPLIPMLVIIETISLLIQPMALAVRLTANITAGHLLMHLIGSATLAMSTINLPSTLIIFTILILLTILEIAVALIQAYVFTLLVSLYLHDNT
UniProt O94776: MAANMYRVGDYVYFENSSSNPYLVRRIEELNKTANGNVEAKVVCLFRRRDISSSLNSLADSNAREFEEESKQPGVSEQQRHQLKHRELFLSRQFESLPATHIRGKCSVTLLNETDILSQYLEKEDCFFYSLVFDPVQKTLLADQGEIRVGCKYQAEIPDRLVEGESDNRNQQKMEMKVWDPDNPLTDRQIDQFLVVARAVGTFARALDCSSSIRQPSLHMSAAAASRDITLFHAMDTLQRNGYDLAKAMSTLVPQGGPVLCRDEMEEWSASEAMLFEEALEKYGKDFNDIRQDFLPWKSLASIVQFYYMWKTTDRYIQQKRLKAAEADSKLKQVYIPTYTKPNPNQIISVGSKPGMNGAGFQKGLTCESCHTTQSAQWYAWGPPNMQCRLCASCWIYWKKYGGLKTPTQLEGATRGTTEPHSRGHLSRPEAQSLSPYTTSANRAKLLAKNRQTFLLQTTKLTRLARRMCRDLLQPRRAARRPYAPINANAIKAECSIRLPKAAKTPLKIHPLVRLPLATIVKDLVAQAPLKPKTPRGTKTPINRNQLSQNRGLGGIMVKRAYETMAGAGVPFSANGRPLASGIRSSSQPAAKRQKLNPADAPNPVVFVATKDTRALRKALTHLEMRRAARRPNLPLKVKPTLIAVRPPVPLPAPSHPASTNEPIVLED
UniProt Q9NZJ7, whole entry, looked up: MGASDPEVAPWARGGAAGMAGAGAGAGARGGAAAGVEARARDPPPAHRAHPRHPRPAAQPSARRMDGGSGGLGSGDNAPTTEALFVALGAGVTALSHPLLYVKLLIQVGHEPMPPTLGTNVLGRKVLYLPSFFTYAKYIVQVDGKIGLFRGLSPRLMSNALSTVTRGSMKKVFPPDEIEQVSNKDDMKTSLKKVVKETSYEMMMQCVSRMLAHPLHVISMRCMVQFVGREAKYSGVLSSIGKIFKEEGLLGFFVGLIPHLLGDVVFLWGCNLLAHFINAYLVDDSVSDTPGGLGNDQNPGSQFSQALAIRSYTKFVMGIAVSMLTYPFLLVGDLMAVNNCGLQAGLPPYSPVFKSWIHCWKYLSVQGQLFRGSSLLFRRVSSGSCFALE
UniProt Q13505: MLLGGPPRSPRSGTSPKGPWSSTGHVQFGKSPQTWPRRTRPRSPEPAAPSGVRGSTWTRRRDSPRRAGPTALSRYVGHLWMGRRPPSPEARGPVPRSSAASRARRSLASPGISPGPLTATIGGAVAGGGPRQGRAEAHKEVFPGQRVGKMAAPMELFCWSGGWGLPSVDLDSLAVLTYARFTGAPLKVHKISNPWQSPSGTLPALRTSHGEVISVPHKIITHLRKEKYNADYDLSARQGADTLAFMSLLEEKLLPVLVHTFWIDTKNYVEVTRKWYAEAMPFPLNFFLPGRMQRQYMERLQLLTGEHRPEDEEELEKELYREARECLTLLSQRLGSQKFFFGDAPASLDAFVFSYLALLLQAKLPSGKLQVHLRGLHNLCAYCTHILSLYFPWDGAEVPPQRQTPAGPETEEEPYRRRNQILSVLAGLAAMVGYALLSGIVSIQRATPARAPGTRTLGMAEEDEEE
UniProt P46199: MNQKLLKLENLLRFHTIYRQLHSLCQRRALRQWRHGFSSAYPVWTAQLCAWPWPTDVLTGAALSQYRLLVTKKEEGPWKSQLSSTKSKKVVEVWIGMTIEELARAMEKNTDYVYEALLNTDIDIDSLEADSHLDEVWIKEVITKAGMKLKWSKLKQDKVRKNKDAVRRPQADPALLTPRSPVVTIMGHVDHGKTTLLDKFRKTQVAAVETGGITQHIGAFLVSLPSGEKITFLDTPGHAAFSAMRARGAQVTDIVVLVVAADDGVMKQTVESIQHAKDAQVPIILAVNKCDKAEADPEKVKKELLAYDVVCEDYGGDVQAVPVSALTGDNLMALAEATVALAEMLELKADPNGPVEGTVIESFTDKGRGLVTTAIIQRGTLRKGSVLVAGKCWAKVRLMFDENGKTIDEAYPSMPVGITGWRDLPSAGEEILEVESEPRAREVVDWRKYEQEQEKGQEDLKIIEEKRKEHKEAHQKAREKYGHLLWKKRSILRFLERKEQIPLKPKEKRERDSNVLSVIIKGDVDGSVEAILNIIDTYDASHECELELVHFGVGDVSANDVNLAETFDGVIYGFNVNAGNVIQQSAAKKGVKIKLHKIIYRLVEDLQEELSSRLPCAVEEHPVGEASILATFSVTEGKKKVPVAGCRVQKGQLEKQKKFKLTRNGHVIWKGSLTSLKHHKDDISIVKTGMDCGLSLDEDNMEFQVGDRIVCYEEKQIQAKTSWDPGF
UniProt P03886, whole entry, looked up: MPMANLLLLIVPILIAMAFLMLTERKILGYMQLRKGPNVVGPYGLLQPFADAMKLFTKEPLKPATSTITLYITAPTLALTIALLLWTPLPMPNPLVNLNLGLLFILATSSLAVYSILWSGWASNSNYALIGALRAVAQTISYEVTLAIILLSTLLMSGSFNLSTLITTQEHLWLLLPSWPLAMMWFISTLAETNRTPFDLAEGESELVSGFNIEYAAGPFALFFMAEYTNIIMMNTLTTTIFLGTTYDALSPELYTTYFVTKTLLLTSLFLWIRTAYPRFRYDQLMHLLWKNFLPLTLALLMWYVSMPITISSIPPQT
UniProt Q13496: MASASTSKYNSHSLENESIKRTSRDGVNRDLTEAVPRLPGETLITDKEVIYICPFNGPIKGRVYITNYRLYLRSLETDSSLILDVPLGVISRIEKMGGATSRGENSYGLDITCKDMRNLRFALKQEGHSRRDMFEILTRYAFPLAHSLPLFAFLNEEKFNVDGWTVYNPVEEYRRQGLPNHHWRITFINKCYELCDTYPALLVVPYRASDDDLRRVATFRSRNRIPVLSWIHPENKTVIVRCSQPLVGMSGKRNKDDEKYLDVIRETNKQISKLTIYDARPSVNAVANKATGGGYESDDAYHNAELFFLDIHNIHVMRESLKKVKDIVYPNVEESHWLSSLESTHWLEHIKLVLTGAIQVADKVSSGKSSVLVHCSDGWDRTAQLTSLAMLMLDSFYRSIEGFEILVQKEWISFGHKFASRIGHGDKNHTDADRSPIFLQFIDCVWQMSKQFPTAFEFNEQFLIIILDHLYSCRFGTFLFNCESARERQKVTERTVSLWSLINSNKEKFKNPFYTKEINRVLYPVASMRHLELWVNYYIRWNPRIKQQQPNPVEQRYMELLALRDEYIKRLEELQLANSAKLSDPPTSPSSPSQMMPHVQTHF
UniProt Q9Y3D2: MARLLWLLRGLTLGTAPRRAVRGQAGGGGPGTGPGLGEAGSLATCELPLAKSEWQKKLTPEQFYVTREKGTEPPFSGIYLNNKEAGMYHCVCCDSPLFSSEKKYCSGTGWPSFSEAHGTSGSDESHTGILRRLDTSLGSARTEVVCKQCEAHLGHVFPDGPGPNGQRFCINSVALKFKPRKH
UniProt Q96DH6: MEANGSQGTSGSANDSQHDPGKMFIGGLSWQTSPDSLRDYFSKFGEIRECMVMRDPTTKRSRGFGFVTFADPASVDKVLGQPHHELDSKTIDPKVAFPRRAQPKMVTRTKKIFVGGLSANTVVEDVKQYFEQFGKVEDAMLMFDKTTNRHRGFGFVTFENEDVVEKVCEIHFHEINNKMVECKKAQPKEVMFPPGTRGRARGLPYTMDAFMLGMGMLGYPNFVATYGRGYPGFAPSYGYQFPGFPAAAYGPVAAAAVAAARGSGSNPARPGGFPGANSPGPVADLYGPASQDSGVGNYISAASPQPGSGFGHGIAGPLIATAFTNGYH
UniProt P82909: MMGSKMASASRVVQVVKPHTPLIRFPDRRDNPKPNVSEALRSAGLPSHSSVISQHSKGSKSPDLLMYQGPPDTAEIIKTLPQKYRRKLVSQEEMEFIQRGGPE

The targets below were run with CNc1nc(-c2ccc3c(N)n[nH]c3c2)cc(N2C[C@@H](C(=O)NC3CCCCC3)CC[C@H]2C)n1 (assay: log2 fold change, soluble protein after heating vs DMSO (PISA); higher = thermal stabilisation; K562 lysate, 10 uM; active = over 0.2 and 3.5 SD of the protein, either way, in both replicates (recomputed)).
In short: (§1)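 Log-two fold change in thermal stability relative to solvent controls is reported from duplicates. For each sample, crude K562 extract from dounce-homogenised pellets in PBS pH 7.4 with 1 mM MgCl2, at 1 mg/mL protein, was treated with 10 μM compound for 30 min. Aliquots heated for 3 min across 48°C-58°C were pooled, brought to 0.5% NP-40 at 4°C and cleared at 21,000xg for 90 min. The supernatant was quantified by TMTpro 16plex LC-MS/MS with channel sums equalised.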

log2 fold change, inactive:
MSN (UniProt P26038) 0.005
MRPS28 (UniProt Q9Y2Q9) -0.057
MTR (UniProt Q99707) 0.001
MTHFD2 (UniProt P13995) -0.046
MRPS31 (UniProt Q92665) 0.018
MTFR2 (UniProt Q6P444) -0.054
MRPL40 (UniProt Q9NQ50) 0.109
MRPL54 (UniProt Q6P161) -0.006
MRPL44 (UniProt Q9H9J2) 0.015
MT-ATP6 (UniProt P00846) -0.013
MT-CO1 (UniProt P00395) 0.126
MRPL58 (UniProt Q14197) 0.033
MTA2 (UniProt O94776) -0.01
MTCH1 (UniProt Q9NZJ7) -0.003
MTX1 (UniProt Q13505) 0.028

These targets were tested with COC(=O)N[C@@H](C)CNc1nccc(-c2cn(C(C)C)nc2-c2cc(Cl)cc(NS(C)(=O)=O)c2F)n1 [encorafenib] in the same assay as above.
In short: as §1

log2 fold change, inactive:
MRPL4 (UniProt Q9BYD3) 0.068
MRPS9 (UniProt P82933) 0.03
MTMR9 (UniProt Q96QG7) 0.024
MRPL28 (UniProt Q13084) 0.026
MRPL41 (UniProt Q8IXM3) -0.004
MRPS22 (UniProt P82650) 0.04
MRPL45 (UniProt Q9BRJ2) 0
MRPS18A isoform 2 (UniProt Q9NVS2) 0.029
MRPL50 (UniProt Q8N5N7) 0.09
MTIF2 (UniProt P46199) 0.015
MRS2 (UniProt Q9HD23) 0.022
MT-ND1 (UniProt P03886) 0.046
MRPS30 (UniProt Q9NP92) 0.013
MTM1 (UniProt Q13496) 0.005
MRPS18B (UniProt Q9Y676) -0.039
MRPL32 (UniProt Q9BYC8) 0.028
MRPS5 (UniProt P82675) -0.021
MSH6 (UniProt P52701) 0.019
MSRB2 (UniProt Q9Y3D2) 0.148
MTA1 (UniProt Q13330) -0.005
MSI2 (UniProt Q96DH6) 0.144
MRPL9 (UniProt Q9BYD2) -0.04
MRPS10 (UniProt P82664) 0.018
MRPS36 (UniProt P82909) 0.009
MSN (UniProt P26038) -0.031
MRPS28 (UniProt Q9Y2Q9) 0.036
MTR (UniProt Q99707) -0.002
MTHFD2 (UniProt P13995) -0.023
MRPS31 (UniProt Q92665) 0.006
MTFR2 (UniProt Q6P444) 0.008
MRPL40 (UniProt Q9NQ50) -0.003
MRPL54 (UniProt Q6P161) -0.003
MRPL44 (UniProt Q9H9J2) -0.053
MT-ATP6 (UniProt P00846) -0.099
MT-CO1 (UniProt P00395) -0.037
MRPL58 (UniProt Q14197) 0.011
MTA2 (UniProt O94776) 0.009
MTCH1 (UniProt Q9NZJ7) -0.042
MTX1 (UniProt Q13505) 0.005

The targets below were run with COC(=O)[C@H](CCSC)NC(=O)C1=C(C=C(C=C1)NC[C@H](CS)N)C2=CC=CC=C2 in the same assay as above.
In short: as §1

log2 fold change, inactive:
MRPL4 (UniProt Q9BYD3) -0.041
MRPS9 (UniProt P82933) 0.021
MTMR9 (UniProt Q96QG7) 0.047
MRPL28 (UniProt Q13084) -0.026
MRPL41 (UniProt Q8IXM3) 0.126
MRPS22 (UniProt P82650) 0.074
MRPL45 (UniProt Q9BRJ2) 0.102
MRPS18A isoform 2 (UniProt Q9NVS2) -0.037
MRPL50 (UniProt Q8N5N7) -0.306
MTIF2 (UniProt P46199) 0.029
MRS2 (UniProt Q9HD23) -0.062
MT-ND1 (UniProt P03886) -0.051
MRPS30 (UniProt Q9NP92) 0.044
MTM1 (UniProt Q13496) 0.016
MRPS18B (UniProt Q9Y676) -0.126
MRPL32 (UniProt Q9BYC8) -0.167
MRPS5 (UniProt P82675) 0.081
MSH6 (UniProt P52701) 0.105
MSRB2 (UniProt Q9Y3D2) -0.067
MTA1 (UniProt Q13330) 0.098
MSI2 (UniProt Q96DH6) -0.023
MRPL9 (UniProt Q9BYD2) 0.055
MRPS10 (UniProt P82664) 0.022
MRPS36 (UniProt P82909) -0.017
MSN (UniProt P26038) 0.022
MRPS28 (UniProt Q9Y2Q9) -0.086
MTR (UniProt Q99707) 0.076
MTHFD2 (UniProt P13995) 0.031
MRPS31 (UniProt Q92665) -0.02
MTFR2 (UniProt Q6P444) -0.09
MRPL40 (UniProt Q9NQ50) 0.074
MRPL54 (UniProt Q6P161) -0.103
MRPL44 (UniProt Q9H9J2) 0.014
MT-ATP6 (UniProt P00846) -0.074
MT-CO1 (UniProt P00395) 0.033
MRPL58 (UniProt Q14197) -0.078
MTA2 (UniProt O94776) 0.134
MTCH1 (UniProt Q9NZJ7) 0.025
MTX1 (UniProt Q13505) -0.023
